Test results as given in paper PMC12321584.
No constants are given. Whether binding was seen depends on the method and setting. Binding seen in cells or lysates may run through a third protein. Some results given as binding are weak or reduced against the parent protein; the word gives no strength.

By UniProt entry, the sequences of proteins in these tests, tags left out.
UniProt Q62420: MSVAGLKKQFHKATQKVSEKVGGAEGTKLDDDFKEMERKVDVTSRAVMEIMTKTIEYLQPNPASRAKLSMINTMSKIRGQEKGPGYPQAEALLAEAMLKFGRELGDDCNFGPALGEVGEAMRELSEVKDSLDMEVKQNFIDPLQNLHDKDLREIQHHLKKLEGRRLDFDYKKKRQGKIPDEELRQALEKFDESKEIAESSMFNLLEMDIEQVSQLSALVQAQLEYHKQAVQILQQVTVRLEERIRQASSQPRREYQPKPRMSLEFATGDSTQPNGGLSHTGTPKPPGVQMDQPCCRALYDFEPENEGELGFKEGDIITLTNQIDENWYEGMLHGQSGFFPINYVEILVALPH
UniProt Q15811: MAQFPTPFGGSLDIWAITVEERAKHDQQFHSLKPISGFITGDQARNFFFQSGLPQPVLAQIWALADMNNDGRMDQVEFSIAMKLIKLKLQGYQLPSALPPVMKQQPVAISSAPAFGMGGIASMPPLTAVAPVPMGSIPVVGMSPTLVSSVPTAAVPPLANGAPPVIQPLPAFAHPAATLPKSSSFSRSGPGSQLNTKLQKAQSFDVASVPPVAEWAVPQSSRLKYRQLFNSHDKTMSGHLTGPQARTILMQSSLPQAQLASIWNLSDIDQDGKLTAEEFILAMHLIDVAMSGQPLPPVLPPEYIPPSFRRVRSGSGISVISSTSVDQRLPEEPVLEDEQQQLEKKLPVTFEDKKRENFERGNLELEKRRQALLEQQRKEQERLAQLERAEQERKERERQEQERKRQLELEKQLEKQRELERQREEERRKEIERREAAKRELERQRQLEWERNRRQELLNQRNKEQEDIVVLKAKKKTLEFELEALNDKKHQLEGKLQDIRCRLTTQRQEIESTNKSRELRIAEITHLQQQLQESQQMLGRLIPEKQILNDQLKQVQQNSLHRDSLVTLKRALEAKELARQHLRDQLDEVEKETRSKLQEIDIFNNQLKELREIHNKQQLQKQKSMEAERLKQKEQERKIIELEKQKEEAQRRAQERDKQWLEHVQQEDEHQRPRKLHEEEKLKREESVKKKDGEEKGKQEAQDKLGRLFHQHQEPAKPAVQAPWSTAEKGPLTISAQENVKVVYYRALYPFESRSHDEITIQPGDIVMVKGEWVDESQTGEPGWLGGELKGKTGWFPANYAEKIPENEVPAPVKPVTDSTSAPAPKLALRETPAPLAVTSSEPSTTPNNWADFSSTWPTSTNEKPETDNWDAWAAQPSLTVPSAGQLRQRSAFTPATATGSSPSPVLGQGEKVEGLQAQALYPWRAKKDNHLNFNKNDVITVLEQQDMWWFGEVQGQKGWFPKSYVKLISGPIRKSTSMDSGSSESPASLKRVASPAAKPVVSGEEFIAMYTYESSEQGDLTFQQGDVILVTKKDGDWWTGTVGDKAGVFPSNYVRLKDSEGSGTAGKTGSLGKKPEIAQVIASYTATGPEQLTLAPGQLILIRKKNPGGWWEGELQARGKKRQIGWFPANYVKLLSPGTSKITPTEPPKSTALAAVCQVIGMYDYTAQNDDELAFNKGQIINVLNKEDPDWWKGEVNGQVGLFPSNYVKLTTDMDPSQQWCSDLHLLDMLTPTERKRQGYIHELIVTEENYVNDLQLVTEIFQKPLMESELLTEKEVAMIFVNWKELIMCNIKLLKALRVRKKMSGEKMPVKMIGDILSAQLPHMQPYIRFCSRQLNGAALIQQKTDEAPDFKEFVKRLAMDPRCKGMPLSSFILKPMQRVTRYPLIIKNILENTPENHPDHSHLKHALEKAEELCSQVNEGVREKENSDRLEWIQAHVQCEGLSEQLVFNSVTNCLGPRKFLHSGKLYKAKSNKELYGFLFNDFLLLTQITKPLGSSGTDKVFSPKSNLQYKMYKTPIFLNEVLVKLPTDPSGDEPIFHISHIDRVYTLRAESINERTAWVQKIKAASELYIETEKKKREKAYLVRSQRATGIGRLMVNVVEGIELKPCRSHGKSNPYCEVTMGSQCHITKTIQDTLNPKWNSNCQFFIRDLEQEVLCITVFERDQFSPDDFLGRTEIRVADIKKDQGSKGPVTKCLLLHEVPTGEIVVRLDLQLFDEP

Target: endophilin A1 (mouse (endogenous in hippocampal neurons)) (UniProt Q62420)
Assay: co-IP; anti-endophilin antibody on Dynabeads; lysates of Itsn1 KO mouse hippocampal cultures infected with rescue lentivirus (DIV 7, lysed DIV 14); lysis buffer 20 mM HEPES pH 7.4, 50 mM KCl, 2 mM MgCl2, 1% Triton X-100; blot with anti-Itsn1 and anti-endophilin 1

intersectin-1, full-length rescue construct ITSN1 WT (from UniProt Q15811 1-1721)
binding: binds
